According to publication PMC9438803 (Life Science Alliance, 2021):
Results are given in words; binding and its absence hold for the method and conditions named. For some of these results: Binding seen in cells or lysates may run through a third protein. Some entries that bind do so weakly or less than the wild type. Each block holds one molecule with its values, some of them ahead of it.

Sequences of proteins named here, by UniProt entry; tags and fusion partners are left off. A change or cut given only in a name is not applied to a line headed by its entry. Residues count along the entry.
UniProt P11388: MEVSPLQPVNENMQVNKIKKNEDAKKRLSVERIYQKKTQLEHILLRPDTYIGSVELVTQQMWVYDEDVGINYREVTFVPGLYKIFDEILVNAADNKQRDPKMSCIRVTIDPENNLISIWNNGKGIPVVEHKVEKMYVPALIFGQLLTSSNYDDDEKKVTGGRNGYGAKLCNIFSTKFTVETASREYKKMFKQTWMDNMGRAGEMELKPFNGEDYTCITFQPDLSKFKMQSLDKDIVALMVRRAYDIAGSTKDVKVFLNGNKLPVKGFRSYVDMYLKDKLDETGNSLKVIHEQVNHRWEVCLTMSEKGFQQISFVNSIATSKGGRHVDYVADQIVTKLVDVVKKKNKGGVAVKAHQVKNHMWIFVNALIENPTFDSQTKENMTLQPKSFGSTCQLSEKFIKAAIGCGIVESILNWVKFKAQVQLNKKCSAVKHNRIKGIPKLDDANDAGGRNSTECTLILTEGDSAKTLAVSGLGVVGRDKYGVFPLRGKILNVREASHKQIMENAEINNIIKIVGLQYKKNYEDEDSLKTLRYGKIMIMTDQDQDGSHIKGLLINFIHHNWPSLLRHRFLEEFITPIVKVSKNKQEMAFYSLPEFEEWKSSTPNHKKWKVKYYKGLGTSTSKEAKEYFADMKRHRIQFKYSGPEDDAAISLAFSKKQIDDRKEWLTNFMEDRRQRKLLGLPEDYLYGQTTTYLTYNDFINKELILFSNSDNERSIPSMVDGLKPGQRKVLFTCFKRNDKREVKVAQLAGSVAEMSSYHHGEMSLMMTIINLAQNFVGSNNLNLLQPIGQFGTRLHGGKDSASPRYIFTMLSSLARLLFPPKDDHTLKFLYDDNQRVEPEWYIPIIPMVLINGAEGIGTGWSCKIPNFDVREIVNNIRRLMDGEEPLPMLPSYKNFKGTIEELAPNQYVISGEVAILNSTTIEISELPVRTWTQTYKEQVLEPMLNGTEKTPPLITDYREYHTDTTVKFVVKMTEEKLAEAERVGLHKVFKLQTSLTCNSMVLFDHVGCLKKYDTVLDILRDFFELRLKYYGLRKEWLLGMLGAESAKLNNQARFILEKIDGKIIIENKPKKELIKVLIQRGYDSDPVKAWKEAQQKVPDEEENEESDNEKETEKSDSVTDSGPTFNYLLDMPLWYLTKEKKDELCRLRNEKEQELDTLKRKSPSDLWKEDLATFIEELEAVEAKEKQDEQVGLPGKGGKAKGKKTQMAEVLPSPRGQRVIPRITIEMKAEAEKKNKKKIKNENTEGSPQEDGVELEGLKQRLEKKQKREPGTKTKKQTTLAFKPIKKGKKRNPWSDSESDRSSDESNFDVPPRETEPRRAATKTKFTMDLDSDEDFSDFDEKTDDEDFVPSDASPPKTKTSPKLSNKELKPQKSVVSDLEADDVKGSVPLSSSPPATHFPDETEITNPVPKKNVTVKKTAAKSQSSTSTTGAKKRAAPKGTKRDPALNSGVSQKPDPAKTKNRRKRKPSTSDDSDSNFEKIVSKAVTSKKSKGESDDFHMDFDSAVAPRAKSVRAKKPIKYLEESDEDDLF
recombinant human Topoisomerase 2a lacking the unstructured C-terminal domain (1-1,217): residues 1-1217 of P11388
UniProt Q9GZS1: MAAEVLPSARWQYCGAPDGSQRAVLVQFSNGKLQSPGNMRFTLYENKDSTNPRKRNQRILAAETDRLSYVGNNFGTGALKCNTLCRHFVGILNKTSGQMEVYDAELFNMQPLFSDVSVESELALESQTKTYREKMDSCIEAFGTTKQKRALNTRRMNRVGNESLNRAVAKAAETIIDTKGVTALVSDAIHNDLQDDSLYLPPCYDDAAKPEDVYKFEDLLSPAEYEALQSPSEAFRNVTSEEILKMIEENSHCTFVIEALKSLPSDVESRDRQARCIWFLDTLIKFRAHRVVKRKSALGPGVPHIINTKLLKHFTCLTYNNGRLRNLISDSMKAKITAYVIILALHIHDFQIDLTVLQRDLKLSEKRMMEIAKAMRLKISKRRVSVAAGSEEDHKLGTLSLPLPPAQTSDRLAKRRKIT
UniProt O15160: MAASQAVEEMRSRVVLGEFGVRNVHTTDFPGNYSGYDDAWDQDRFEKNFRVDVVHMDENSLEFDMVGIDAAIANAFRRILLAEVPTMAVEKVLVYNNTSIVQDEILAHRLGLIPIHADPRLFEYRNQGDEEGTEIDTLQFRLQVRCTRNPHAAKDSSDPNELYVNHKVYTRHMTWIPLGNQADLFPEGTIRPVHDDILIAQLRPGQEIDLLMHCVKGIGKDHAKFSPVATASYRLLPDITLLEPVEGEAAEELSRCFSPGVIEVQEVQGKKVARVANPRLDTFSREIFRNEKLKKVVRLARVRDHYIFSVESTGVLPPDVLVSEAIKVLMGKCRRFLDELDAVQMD
UniProt P0DPB6: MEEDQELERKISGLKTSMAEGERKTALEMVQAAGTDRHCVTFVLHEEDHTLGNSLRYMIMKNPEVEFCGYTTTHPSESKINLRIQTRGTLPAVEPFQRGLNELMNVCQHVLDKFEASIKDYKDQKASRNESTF
UniProt O15446: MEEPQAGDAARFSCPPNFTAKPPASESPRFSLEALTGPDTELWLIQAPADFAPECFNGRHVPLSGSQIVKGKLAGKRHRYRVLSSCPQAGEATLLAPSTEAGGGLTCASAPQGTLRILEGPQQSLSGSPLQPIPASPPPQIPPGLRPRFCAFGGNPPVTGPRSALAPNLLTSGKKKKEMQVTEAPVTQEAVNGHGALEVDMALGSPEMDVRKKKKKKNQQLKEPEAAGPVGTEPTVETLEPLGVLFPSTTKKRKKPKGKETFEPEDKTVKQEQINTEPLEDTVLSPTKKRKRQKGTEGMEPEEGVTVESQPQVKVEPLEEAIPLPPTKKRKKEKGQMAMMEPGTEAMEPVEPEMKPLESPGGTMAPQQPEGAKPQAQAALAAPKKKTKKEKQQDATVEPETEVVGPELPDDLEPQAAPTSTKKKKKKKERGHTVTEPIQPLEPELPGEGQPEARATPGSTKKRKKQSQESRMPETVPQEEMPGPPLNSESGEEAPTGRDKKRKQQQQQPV

Legend:
[1] = target: Topoisomerase 2a, endogenous in U2OS nuclear extract (human (endogenous in U2OS)) (UniProt P11388); assay: co-IP; U2OS nuclear extract diluted to 150 mM KCl and treated with benzonase; anti-Top2a antibody cross-linked to Protein A magnetic beads, 1 h at 4°C; Western blot with anti-UBF, anti-RPA49 and anti-Top2a
[2] = target: RNA polymerase I subunit RPA1 with genomic C-terminal sfGFP fusion (human (endogenous in HeLa)) (UniProt O95602); assay: affinity purification by RPA1-sfGFP, subunits seen in the cryo-EM density; hPol I purified from HeLa POLR1A-sfGFP lysate by RPA1-sfGFP; subunits with connected density in the reconstruction, contacts with RPA1 not told
[3] = target: recombinant human Topoisomerase 2a lacking the unstructured C-terminal domain (1-1,217) (human) (UniProt P11388); assay: native gel or EMSA; blue-native PAGE, 3-12% gradient gel; five times molar excess of MBP-only or tagged dock II over Top2a ΔC (1-1,217); 20 mM Hepes pH 8.0, 150 mM NaCl, 50 mM KCl, 1 mM MgCl2, 2% glycerol, 2 mM β-mercaptoethanol; 30 min at room temperature; Coomassie stained; both purified
[4] = target: recombinant human RPA49 full length with N-terminal 6xHis-tag (human) (UniProt Q9GZS1); assay: co-purification (Ni-NTA by the tag on one chain, MonoS, size exclusion); human RPA49 with N-terminal 6xHis-tag and untagged RPA34 co-expressed in E. coli; Ni-NTA with 1 M NaCl and ATP washes, MonoS, Superdex200 in 50 mM Tris pH 7.5, 150 mM NaCl, 5 mM DTT

- binding [1]: binds
Molecule: RNA polymerase I subunit RPA49, endogenous in U2OS nuclear extract (from UniProt Q9GZS1 1-419)

- binding [2]: binds
Molecule: RNA polymerases I and III subunit RPAC1 (from UniProt O15160 1-346)

- binding [2]: binds
Molecule: RNA polymerases I and III subunit RPAC2 (from UniProt P0DPB6 1-133)

Molecule: human dock II domain, minimal fragment (RPA1 1081-1146) with C-terminal His-MBP-tag (from UniProt O95602 1081-1146) (domain or fragment)
- binding [3]: no binding (tested: Five times molar excess)

- binding [4]: binds
Molecule: recombinant human RPA34 full length, untagged (from UniProt O15446 1-510)

- binding [4]: binds
Molecule: recombinant human RPA34 residues 1-343, untagged (from UniProt O15446 1-343) (domain or fragment)

- binding [3]: binds weakly
B1: human dock II domain, full-length fragment (RPA1 1060-1155) with C-terminal His-MBP-tag (domain or fragment, UniProt O95602 1060-1155, looked up)
chain: ADPKKALHHFRAIKKWQSKHPNTLLRRGAFLSYSQKIQEAVKALKLESENRNGRSPGTQEMLRMWYELDEESRRKYQKKAAACPDPSLSVWRPDIY
notes: human RPA1 residues 1060-1155, the dock II domain (HMG box-like foot insertion); The results call it MBP-dock II; the methods say that the His-MBP tag is C-terminal; also called full-length MBP-dock II; dock II-MBP fusion; source: E. coli BL21 (DE3) RIL, purified (Ni-NTA, Superdex 75); not shown: His, C-terminal, kept; MBP, C-terminal, kept
